This passage reports binding results from publication doi:10.1101/2020.12.28.423414.

The chains behind the UniProt entries cited, without tags or fusion partners.
UniProt Q9FIJ0: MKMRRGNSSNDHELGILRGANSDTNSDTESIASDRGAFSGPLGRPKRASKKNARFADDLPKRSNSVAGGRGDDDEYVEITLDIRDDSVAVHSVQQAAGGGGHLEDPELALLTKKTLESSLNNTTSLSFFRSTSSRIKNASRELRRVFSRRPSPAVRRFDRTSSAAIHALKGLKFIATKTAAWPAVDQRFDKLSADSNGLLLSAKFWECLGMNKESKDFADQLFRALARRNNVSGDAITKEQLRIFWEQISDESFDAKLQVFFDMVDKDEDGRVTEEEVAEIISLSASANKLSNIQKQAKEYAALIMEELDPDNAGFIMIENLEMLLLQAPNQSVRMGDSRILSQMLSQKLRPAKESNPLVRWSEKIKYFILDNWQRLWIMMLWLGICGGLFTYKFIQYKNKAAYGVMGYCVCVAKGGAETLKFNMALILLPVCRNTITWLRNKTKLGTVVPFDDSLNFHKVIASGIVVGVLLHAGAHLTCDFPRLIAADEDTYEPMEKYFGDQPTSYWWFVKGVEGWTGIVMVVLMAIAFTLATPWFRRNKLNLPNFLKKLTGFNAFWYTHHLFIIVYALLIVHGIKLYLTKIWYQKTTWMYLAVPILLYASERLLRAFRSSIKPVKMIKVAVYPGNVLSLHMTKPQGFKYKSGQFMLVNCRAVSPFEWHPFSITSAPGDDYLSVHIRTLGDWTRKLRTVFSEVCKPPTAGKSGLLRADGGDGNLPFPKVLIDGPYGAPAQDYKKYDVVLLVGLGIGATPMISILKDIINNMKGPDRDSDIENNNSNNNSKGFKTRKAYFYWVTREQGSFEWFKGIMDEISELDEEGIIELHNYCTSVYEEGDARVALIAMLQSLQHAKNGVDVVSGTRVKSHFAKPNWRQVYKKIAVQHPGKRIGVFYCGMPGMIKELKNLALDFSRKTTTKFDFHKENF

These are yes or no findings as the source states them, for the method shown. In cells and extracts the contact can be indirect. These calls come from enrichment with a bait or labelling near it, and not all partners need be listed.

The target in test [1] is 3×FLAG-tagged RBOHD (RESPIRATORY BURST OXIDASE HOMOLOG D) (Arabidopsis thaliana) (UniProt Q9FIJ0). In words: affinity purification with mass spectrometry.
In test [2] the target is 3×FLAG-tagged RBOHD (RESPIRATORY BURST OXIDASE HOMOLOG D) (Arabidopsis thaliana), Q9FIJ0. In words: affinity purification with mass spectrometry. The conditions noted are these: remark: other sources report otherwise.

B1: plasma membrane calcium ATPase ACA8 (enzyme, UniProt Q9LF79 1-1074)
chain: MTSLLKSSPGRRRGGDVESGKSEHADSDSDTFYIPSKNASIERLQQWRKAALVLNASRRFRYTLDLKKEQETREMRQKIRSHAHALLAANRFMDMGRESGVEKTTGPATPAGDFGITPEQLVIMSKDHNSGALEQYGGTQGLANLLKTNPEKGISGDDDDLLKRKTIYGSNTYPRKKGKGFLRFLWDACHDLTLIILMVAAVASLALGIKTEGIKEGWYDGGSIAFAVILVIVVTAVSDYKQSLQFQNLNDEKRNIHLEVLRGGRRVEISIYDIVVGDVIPLNIGNQVPADGVLISGHSLALDESSMTGESKIVNKDANKDPFLMSGCKVADGNGSMLVTGVGVNTEWGLLMASISEDNGEETPLQVRLNGVATFIGSIGLAVAAAVLVILLTRYFTGHTKDNNGGPQFVKGKTKVGHVIDDVVKVLTVAVTIVVVAVPEGLPLAVTLTLAYSMRKMMADKALVRRLSACETMGSATTICSDKTGTLTLNQMTVVESYAGGKKTDTEQLPATITSLVVEGISQNTTGSIFVPEGGGDLEYSGSPTEKAILGWGVKLGMNFETARSQSSILHAFPFNSEKKRGGVAVKTADGEVHVHWKGASEIVLASCRSYIDEDGNVAPMTDDKASFFKNGINDMAGRTLRCVALAFRTYEAEKVPTGEELSKWVLPEDDLILLAIVGIKDPCRPGVKDSVVLCQNAGVKVRMVTGDNVQTARAIALECGILSSDADLSEPTLIEGKSFREMTDAERDKISDKISVMGRSSPNDKLLLVQSLRRQGHVVAVTGDGTNDAPALHEADIGLAMGIAGTEVAKESSDIIILDDNFASVVKVVRWGRSVYANIQKFIQFQLTVNVAALVINVVAAISSGDVPLTAVQLLWVNLIMDTLGALALATEPPTDHLMGRPPVGRKEPLITNIMWRNLLIQAIYQVSVLLTLNFRGISILGLEHEVHEHATRVKNTIIFNAFVLCQAFNEFNARKPDEKNIFKGVIKNRLFMGIIVITLVLQVIIVEFLGKFASTTKLNWKQWLICVGIGVISWPLALVGKFIPVPAAPISNKLKVLKFWGKKKNSSGEGSL
As to B1, in test [1], the binding entry is on record as “binds”.

B2: CERK1, A8R7E6 24-617 (receptor)
chain: KCRTSCPLALASYYLENGTTLSVINQNLNSSIAPYDQINFDPILRYNSNIKDKDRIQMGSRVLVPFPCECQPGDFLGHNFSYSVRQEDTYERVAISNYANLTTMESLQARNPFPATNIPLSATLNVLVNCSCGDESVSKDFGLFVTYPLRPEDSLSSIARSSGVSADILQRYNPGVNFNSGNGIVYVPGRDPNGAFPPFKSSKQDGVGAGVIAGIVIGVIVALLLILFIVYYAYRKNKSKGDSFSSSIPLSTKADHASSTSLQSGGLGGAGVSPGIAAISVDKSVEFSLEELAKATDNFNLSFKIGQGGFGAVYYAELRGEKAAIKKMDMEASKQFLAELKVLTRVHHVNLVRLIGYCVEGSLFLVYEYVENGNLGQHLHGSGREPLPWTKRVQIALDSARGLEYIHEHTVPVYVHRDIKSANILIDQKFRAKVADFGLTKLTEVGGSATRGAMGTFGYMAPETVYGEVSAKVDVYAFGVVLYELISAKGAVVKMTEAVGEFRGLVGVFEESFKETDKEEALRKIIDPRLGDSYPFDSVYKMAELGKACTQENAQLRPSMRYIVVALSTLFSSTGNWDVGNFQNEDLVSLMSGR
Regarding B2, the binding result in test [2] is on record as “binds”.

B3: cyclic nucleotide-gated ion channel CNGC4 (protein, UniProt Q94AS9 1-694)
chain: MATEQEFTRASRFSRDSSSVGYYSEEDNTEEEDEEEEEMEEIEEEEEEEEEEDPRIGLTCGGRRNGSSNNNKWMMLGRILDPRSKWVREWNKVFLLVCATGLFVDPLFLYTLSVSDTCMCLLVDGWLALTVTALRSMTDLLHLWNIWIQFKIARRWPYPGGDSDGDTNKGGGTRGSTRVAPPYVKKNGFFFDLFVILPLPQVVLWVVIPSLLKRGSVTLVVSVLLVTFLFQYLPKIYHSIRHLRRNATLSGYIFGTVWWGIALNMIAYFVAAHAAGACWYLLGVQRSAKCLKEQCENTIGCDLRMLSCKEPVYYGTTVMVLDRARLAWAQNHQARSVCLDINTNYTYGAYQWTIQLVSSESRLEKILFPIFWGLMTLSTFGNLESTTEWSEVVFNIIVLTSGLLLVTMLIGNIKVFLHATTSKKQAMHLKMRNIEWWMKKRHLPIGFRQRVRNYERQRWAAMRGVDECEMVQNLPEGLRRDIKYHLCLDLVRQVPLFQHMDDLVLENICDRVKSLIFTKGETIQKEGDAVQRMLFVVRGHLQSSQLLRDGVKSCCMLGPGNFSGDELLSWCLRRPFVERLPPSSSTLVTLETTEAFGLDAEDVKYVTQHFRYTFVNEKVKRSARYYSPGWRTWAAVAVQLAWRRYKHRLTLTSLSFIRPRRPLSRCASLGEDKLRLYAAILTSPKPNPDDFDDY
In the case of B3, the binding entry in test [1] was “binds”.

B4: cyclic nucleotide-gated ion channel CNGC2 (protein, UniProt O65718 1-726)
chain: MPSHPNFIFRWIGLFSDKFRRQTTGIDENSNLQINGGDSSSSGSDETPVLSSVECYACTQVGVPAFHSTSCDQAHAPEWRASAGSSLVPIQEGSVPNPARTRFRRLKGPFGEVLDPRSKRVQRWNRALLLARGMALAVDPLFFYALSIGRTTGPACLYMDGAFAAVVTVLRTCLDAVHLWHVWLQFRLAYVSRESLVVGCGKLVWDPRAIASHYARSLTGFWFDVIVILPVPQAVFWLVVPKLIREEKVKLIMTILLLIFLFQFLPKIYHCICLMRRMQKVTGYIFGTIWWGFALNLIAYFIASHVAGGCWYVLAIQRVASCIRQQCMRTGNCNLSLACKEEVCYQFVSPTSTVGYPCLSGNLTSVVNKPMCLDSNGPFRYGIYRWALPVISSNSLAVKILYPIFWGLMTLSTFANDLEPTSNWLEVIFSIVMVLSGLLLFTLLIGNIQVFLHAVMAKKRKMQIRCRDMEWWMKRRQLPSRLRQRVRRFERQRWNALGGEDELELIHDLPPGLRRDIKRYLCFDLINKVPLFRGMDDLILDNICDRAKPRVFSKDEKIIREGDPVQRMIFIMRGRVKRIQSLSKGVLATSTLEPGGYLGDELLSWCLRRPFLDRLPPSSATFVCLENIEAFSLGSEDLRYITDHFRYKFANERLKRTARYYSSNWRTWAAVNIQMAWRRRRKRTRGENIGGSMSPVSENSIEGNSERRLLQYAAMFMSIRPHDHLE
Consider B4, for which, in test [1], the binding result was “binds”.
